Reference: the supplement of paper PMC10849652
The list shows a part of the results.

Sequences of proteins named here, by UniProt entry; tags and fusion partners are left off. A change or cut given only in a name is not applied to a line headed by its entry.
UniProt P13498: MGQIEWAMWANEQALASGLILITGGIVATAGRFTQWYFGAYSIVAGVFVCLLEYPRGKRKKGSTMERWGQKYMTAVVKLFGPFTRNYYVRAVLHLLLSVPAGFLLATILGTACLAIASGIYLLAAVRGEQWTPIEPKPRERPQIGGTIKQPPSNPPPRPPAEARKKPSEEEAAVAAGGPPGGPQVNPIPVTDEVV
UniProt O75390: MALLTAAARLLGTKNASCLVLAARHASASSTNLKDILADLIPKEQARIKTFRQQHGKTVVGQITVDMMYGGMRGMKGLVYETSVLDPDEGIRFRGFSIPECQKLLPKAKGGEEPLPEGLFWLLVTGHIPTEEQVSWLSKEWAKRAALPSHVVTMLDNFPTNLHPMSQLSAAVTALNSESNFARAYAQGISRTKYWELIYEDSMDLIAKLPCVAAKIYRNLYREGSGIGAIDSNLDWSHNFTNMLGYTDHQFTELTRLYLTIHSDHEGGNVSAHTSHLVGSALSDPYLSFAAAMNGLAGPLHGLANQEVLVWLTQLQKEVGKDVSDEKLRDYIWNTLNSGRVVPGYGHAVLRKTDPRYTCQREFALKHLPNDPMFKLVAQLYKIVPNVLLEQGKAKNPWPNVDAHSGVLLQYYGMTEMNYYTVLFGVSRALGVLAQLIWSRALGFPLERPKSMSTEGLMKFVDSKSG
UniProt Q6UXH1: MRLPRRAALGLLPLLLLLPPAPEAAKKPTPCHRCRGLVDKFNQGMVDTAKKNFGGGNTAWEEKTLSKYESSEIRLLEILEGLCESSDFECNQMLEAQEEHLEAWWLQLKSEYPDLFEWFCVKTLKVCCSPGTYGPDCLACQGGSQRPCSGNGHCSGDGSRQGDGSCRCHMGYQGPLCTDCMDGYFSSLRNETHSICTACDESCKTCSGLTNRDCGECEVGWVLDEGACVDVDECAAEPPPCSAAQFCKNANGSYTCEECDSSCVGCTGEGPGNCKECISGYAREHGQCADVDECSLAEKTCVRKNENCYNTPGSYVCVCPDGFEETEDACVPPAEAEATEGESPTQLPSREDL
UniProt Q9P013: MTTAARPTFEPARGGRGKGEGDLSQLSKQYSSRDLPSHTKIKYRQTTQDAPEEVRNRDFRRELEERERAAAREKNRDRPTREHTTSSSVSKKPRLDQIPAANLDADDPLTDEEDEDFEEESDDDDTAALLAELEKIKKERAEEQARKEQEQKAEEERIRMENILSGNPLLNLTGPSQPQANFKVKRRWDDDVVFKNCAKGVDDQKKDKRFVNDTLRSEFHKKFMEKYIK
UniProt Q9P021, whole entry, looked up: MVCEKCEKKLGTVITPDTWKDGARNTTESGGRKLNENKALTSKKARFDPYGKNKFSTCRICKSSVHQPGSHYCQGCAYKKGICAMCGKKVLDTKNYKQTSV
UniProt Q9BZJ0: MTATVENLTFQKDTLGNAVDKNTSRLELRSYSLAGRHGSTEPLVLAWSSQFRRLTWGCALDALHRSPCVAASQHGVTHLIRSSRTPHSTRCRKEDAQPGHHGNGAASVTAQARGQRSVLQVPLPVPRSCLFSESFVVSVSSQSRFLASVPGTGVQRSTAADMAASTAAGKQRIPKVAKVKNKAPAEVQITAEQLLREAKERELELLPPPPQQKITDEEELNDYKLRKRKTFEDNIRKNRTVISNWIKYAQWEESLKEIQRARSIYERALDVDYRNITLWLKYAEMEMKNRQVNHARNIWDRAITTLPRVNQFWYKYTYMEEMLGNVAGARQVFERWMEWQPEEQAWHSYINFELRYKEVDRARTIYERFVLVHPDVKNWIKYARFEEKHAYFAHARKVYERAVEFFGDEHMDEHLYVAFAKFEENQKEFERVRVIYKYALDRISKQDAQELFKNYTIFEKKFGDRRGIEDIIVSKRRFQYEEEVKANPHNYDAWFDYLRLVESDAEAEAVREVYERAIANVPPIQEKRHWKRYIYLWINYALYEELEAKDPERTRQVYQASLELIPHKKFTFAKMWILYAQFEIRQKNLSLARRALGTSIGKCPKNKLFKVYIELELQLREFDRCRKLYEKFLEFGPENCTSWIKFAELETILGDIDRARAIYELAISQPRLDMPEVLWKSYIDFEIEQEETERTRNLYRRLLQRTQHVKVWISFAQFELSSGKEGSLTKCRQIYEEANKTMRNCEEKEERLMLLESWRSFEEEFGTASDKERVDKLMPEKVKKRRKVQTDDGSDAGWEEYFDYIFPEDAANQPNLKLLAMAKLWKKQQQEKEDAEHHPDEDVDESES
UniProt Q9HCG8: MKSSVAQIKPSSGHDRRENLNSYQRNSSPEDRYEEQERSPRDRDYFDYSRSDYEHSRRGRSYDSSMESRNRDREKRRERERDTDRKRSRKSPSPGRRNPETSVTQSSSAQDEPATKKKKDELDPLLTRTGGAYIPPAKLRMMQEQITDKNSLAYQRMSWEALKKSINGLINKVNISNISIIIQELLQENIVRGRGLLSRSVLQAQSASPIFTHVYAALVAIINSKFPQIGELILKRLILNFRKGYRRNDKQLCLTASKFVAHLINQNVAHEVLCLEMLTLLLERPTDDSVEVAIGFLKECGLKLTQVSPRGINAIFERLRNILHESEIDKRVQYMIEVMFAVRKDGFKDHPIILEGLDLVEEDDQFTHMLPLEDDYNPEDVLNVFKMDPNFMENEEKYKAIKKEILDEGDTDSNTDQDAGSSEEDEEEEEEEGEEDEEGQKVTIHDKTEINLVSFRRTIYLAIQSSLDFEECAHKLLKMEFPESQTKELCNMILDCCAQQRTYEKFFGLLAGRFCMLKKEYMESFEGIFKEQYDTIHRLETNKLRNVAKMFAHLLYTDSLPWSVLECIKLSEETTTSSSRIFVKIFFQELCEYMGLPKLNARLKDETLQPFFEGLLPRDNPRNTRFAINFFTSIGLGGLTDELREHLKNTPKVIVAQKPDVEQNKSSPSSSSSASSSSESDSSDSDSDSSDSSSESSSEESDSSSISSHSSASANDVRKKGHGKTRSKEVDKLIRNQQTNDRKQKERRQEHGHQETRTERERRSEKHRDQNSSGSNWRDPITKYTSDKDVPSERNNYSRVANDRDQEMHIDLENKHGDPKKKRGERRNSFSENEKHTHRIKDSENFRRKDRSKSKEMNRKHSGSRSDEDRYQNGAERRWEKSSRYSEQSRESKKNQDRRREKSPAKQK
UniProt P99999: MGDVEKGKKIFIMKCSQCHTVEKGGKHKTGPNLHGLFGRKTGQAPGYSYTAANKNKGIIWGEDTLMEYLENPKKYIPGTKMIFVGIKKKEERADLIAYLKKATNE
UniProt Q12996: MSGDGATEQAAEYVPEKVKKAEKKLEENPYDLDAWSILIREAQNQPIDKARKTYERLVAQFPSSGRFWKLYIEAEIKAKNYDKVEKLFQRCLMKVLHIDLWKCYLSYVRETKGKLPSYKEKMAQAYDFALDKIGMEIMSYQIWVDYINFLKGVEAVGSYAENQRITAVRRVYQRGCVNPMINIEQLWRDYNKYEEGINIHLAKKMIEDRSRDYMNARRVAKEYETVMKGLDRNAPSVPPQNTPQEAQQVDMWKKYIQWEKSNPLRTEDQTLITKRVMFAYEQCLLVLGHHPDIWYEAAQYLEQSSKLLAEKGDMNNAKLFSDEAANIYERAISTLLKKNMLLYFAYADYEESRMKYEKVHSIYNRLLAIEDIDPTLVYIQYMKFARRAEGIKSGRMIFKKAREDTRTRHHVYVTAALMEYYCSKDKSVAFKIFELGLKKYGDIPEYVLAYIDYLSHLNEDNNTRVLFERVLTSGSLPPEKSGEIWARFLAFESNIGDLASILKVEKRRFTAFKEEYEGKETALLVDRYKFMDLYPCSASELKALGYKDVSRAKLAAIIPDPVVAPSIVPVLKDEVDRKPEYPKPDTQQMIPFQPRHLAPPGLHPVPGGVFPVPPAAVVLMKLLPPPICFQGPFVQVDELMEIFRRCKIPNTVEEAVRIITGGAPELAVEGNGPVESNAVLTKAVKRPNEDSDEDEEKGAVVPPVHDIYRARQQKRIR
UniProt Q14247: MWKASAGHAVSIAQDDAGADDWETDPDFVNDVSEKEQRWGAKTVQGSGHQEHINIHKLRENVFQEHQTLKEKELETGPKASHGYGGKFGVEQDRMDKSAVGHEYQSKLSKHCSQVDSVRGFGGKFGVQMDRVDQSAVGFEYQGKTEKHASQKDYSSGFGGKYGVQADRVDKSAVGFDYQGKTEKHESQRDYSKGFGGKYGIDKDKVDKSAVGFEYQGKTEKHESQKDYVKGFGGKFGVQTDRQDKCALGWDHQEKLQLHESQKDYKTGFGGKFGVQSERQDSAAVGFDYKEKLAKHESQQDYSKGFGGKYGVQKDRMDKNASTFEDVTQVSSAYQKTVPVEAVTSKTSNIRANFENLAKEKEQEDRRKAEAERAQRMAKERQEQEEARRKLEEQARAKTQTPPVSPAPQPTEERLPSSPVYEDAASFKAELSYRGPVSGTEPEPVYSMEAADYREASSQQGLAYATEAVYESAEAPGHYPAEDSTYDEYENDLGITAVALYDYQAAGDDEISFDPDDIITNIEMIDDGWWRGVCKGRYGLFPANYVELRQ
UniProt Q1MSJ5: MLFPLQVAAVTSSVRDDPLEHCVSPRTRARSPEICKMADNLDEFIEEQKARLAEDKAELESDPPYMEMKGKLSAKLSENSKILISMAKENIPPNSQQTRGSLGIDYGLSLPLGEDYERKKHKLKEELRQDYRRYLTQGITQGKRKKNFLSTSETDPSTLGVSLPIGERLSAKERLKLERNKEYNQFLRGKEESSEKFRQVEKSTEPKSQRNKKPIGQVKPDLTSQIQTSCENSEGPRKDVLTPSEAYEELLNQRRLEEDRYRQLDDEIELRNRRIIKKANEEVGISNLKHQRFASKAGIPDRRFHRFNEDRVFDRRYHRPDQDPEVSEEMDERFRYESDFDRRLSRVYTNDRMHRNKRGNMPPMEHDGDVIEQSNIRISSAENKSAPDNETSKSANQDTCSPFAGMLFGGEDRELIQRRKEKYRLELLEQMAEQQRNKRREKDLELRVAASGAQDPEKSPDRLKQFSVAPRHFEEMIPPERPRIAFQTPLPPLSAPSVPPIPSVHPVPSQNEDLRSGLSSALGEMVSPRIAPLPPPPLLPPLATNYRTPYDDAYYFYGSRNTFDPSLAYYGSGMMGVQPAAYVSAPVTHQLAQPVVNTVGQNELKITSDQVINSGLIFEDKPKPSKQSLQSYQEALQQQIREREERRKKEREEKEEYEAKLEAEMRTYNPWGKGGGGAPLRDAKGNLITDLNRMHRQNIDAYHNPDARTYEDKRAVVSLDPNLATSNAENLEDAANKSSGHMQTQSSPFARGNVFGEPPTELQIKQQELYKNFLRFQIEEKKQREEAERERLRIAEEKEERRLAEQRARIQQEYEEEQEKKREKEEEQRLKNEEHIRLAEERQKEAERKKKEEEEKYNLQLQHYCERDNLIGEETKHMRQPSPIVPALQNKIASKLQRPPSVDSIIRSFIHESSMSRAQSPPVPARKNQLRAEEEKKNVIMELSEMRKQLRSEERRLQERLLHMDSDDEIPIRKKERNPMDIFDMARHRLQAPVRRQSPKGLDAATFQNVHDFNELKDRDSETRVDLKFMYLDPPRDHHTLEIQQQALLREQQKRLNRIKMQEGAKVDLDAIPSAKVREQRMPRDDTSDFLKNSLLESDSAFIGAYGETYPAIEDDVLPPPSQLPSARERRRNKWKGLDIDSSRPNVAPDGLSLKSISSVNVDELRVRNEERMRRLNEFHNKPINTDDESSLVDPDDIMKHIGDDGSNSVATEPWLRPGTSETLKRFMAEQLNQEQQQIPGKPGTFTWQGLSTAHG
UniProt Q9P0U4, whole entry, looked up: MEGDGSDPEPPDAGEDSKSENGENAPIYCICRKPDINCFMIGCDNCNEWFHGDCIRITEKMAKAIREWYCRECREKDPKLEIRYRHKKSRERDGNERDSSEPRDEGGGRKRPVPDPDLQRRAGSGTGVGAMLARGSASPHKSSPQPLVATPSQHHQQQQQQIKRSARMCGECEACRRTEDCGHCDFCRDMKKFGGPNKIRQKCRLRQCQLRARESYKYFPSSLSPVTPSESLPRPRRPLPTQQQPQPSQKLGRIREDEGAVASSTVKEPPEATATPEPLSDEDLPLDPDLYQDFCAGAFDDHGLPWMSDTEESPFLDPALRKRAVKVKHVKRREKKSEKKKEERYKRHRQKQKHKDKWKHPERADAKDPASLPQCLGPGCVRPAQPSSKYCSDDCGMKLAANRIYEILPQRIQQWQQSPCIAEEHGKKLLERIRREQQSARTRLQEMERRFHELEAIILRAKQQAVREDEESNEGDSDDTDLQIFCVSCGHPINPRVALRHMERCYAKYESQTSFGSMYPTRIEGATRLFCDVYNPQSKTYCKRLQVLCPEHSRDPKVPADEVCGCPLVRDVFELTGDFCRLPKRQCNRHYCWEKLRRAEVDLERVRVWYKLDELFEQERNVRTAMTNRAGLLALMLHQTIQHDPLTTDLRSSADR

Key:
Experiment in all cases: log2 fold change, soluble protein after heating vs DMSO (PISA); higher = thermal stabilisation; K562 lysate, 10 uM; active = over 0.2 and 3.5 SD of the protein, either way, in both replicates (recomputed)
erlotinib = compound: C#Cc1cccc(Nc2ncnc3cc(OCCOC)c(OCCOC)cc23)c1 [erlotinib]
Summary of the method: (§1)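 A 30 min treatment with 10 μM compound was applied to crude K562 extract at 1 mg/mL protein in PBS pH 7.4 with 1 mM MgCl2. Heating for 3 min spanned 48°C-58°C, after which aliquots were pooled, adjusted to 0.5% NP-40 at 4°C and spun at 21,000xg for 90 min. TMTpro 16plex LC-MS/MS of the supernatant, with channel sums equalised, gave values recorded as log-two fold change in thermal stability against solvent controls, from duplicates.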

[1] = compound: C/C(=N\NC(=O)C1=CC(=CC=C1)S(=O)(=O)N2CCOCC2)/C3=C(C=CC(=C3)Cl)O
Summary of the method: as §1

[2] = compound: C1=CC(=CC=C1C2=NC3=C(N2)C=C(C=C3)C(=O)N)OC4=CC=C(C=C4)Cl
Summary of the method: as §1

[3] = compound: C1=CC2=C(C=CC(=C2)/C=C\3/C(=O)NC(=NCC4=CC=CS4)S3)N=C1
Summary of the method: as §1

[4] = compound: C1=CC2=NC=CN=C2C=C1/C=C/3\C(=O)NC(=O)S3
Summary of the method: as §1

[5] = compound: C1=CC=C(C=C1)C2=NC(=C(N2)C3=CC=NC=C3)C4=CC(=C(C=C4)Cl)O
Summary of the method: as §1

[6] = compound: C1=CC=C2C(=C1)C3=NNC4=CC=CC(=C43)C2=O
Summary of the method: as §1

[7] = compound: C1CCN(C1)C(=O)NC2=CC=CC(=C2)NC3=NC=C(C(=N3)NCCC4=CN=CN4)Br
Summary of the method: as §1

[8] = compound: C1CN(CCC1(CC2=CC=C(C=C2)Cl)N)C3=NC=NC4=C3C=CN4
Summary of the method: as §1

IRAK-1-4 Inhibitor I = compound: C1COCCN1CCN2C3=CC=CC=C3N=C2NC(=O)C4=CC(=CC=C4)[N+](=O)[O-] [IRAK-1-4 Inhibitor I]
Summary of the method: as §1

ibrutinib = compound: C=CC(=O)N1CCC[C@@H](n2nc(-c3ccc(Oc4ccccc4)cc3)c3c(N)ncnc32)C1 [ibrutinib]
Summary of the method: as §1

[9] = compound: CC(=O)c1cnc2ccc(-c3cc(Cl)c(O)c(Cl)c3)nc2c1N[C@H]1CC[C@H](CN(C)C)CC1
Summary of the method: as §1

ralimetinib = compound: CC(C)(C)Cn1c(N)nc2ccc(-c3[nH]c(C(C)(C)C)nc3-c3ccc(F)cc3)nc21 [ralimetinib]
Summary of the method: as §1

[10] = compound: CC(C)(O)CC(=O)NCCn1ccc2ncnc(Nc3ccc(Oc4cccc(C(F)(F)F)c4)c(Cl)c3)c21
Summary of the method: as §1

[11] = compound: CC(C)C1=C2N=C(C=C(N2N=C1)NCC3=CC=CC=C3)NCCCCCCN
Summary of the method: as §1

[12] = compound: CC1=C(C(CC(=O)N1)C2=CC=C(C=C2)C(F)(F)F)C(=O)NC3=C(C=C4C(=C3)C=NN4)F
Summary of the method: as §1

[13] = compound: CC1=C(C2=C(C=C1)C(=O)C3=CC=CC=C3N2CCCN)C
Summary of the method: as §1

[14] = compound: CC1=C(C=C(C=C1)NC(=O)C2=CC(=CC=C2)C(C)(C)C#N)NC3=CC4=C(C=C3)N=CN(C4=O)C
Summary of the method: as §1

[15] = compound: CC1=C(C=C(C=C1)NC(=O)C2=CC(=CC=C2)N(C)C)NC(=O)C3=CC=C(C=C3)O
Summary of the method: as §1

[16] = compound: CC1=CC=C(C=C1)SC2=C3C=C(SC3=CN=C2)C(=O)N
Summary of the method: as §1

| Target | log2 fold change (erlotinib) | log2 fold change [1] | log2 fold change [2] | log2 fold change [3] | log2 fold change [4] | log2 fold change [5] | log2 fold change [6] | log2 fold change [7] | log2 fold change [8] | log2 fold change (IRAK-1-4 Inhibitor I) | log2 fold change (ibrutinib) | log2 fold change [9] | log2 fold change (ralimetinib) | log2 fold change [10] | log2 fold change [11] | log2 fold change [12] | log2 fold change [13] | log2 fold change [14] | log2 fold change [15] | log2 fold change [16] |
| --- | --- | --- | --- | --- | --- | --- | --- | --- | --- | --- | --- | --- | --- | --- | --- | --- | --- | --- | --- | --- |
| CYBA (UniProt P13498) | inactive: -0.02 | inactive: 0.084 | inactive: -0.165 | inactive: 0 | inactive: -0.002 | inactive: -0.03 | inactive: -0.037 | inactive: -0.045 | inactive: 0.019 | inactive: 0.012 | inactive: 0.051 | inactive: 0.02 | inactive: -0.007 | inactive: -0.081 | inactive: 0.08 | inactive: -0.006 | inactive: 0.016 | inactive: -0.011 | inactive: 0.026 | inactive: -0.008 |
| CS (UniProt O75390) | inactive: -0.033 | inactive: 0.08 | inactive: -0.002 | inactive: -0.031 | inactive: -0.021 | inactive: -0.011 | inactive: -0.014 | inactive: -0.047 | inactive: 0.015 | inactive: 0.025 | inactive: -0.004 | inactive: 0.009 | inactive: -0.002 | inactive: 0.007 | inactive: -0.009 | inactive: -0.022 | inactive: -0.018 | inactive: 0.019 | inactive: 0.013 | inactive: 0.015 |
| CRELD2 isoform 5 (UniProt Q6UXH1) | inactive: 0.06 | inactive: -0.053 | inactive: -0.033 | inactive: -0.021 | inactive: -0.018 | inactive: 0.045 | inactive: -0.046 | inactive: -0.025 | inactive: 0.004 | inactive: -0.002 | inactive: -0.269 | inactive: 0.012 | inactive: -0.037 | inactive: 0.053 | inactive: -0.11 | inactive: 0.05 | inactive: -0.032 | inactive: 0.068 | inactive: -0.002 | inactive: -0.016 |
| CWC15 (UniProt Q9P013) | inactive: -0.025 | inactive: 0 | inactive: -0.035 | inactive: 0.02 | inactive: 0 | inactive: 0.003 | inactive: 0.043 | inactive: 0.012 | inactive: -0.046 | inactive: -0.002 | inactive: 0.013 | inactive: 0.008 | inactive: -0.017 | inactive: -0.039 | inactive: -0.019 | inactive: 0.077 | inactive: 0.02 | inactive: -0.012 | inactive: -0.053 | inactive: -0.045 |
| CRIPT (UniProt Q9P021) | inactive: 0.012 | inactive: -0.027 | inactive: -0.051 | inactive: -0.008 | inactive: 0.057 | inactive: -0.018 | inactive: 0.014 | inactive: 0.002 | inactive: 0.019 | inactive: 0.042 | inactive: 0.126 | inactive: 0.037 | inactive: 0.032 | inactive: -0.043 | inactive: -0.095 | inactive: 0.085 | inactive: 0.004 | inactive: 0.037 | inactive: 0.002 | inactive: 0.05 |
| CRNKL1 (UniProt Q9BZJ0) | inactive: -0.102 | inactive: 0.052 | inactive: -0.097 | inactive: 0.013 | inactive: 0.042 | inactive: -0.027 | inactive: -0.026 | inactive: -0.048 | inactive: 0.021 | inactive: -0.164 | inactive: 0.029 | inactive: 0.008 | inactive: 0.062 | inactive: 0.006 | inactive: -0.064 | inactive: 0.028 | inactive: -0.013 | inactive: -0.218 | inactive: 0.096 | inactive: 0.03 |
| CWC22 (UniProt Q9HCG8) | inactive: 0.058 | inactive: 0.006 | inactive: -0.046 | inactive: -0.009 | inactive: -0.032 | inactive: -0.025 | inactive: -0.092 | inactive: -0.014 | inactive: -0.006 | inactive: -0.017 | inactive: 0.027 | inactive: -0.007 | inactive: 0.007 | inactive: -0.002 | inactive: -0.005 | inactive: 0.06 | inactive: 0 | inactive: -0.002 | inactive: 0.028 | inactive: -0.009 |
| CUL2 isoform 2 (UniProt Q13617) | inactive: 0.002 | inactive: -0.044 | inactive: -0.001 | inactive: 0.022 | inactive: 0.012 | inactive: -0.032 | inactive: 0.019 | inactive: -0.011 | inactive: 0.007 | inactive: -0.013 | inactive: -0.004 | inactive: 0.001 | inactive: 0.013 | inactive: 0.002 | inactive: -0.025 | inactive: -0.008 | inactive: 0.023 | inactive: -0.007 | inactive: -0.001 | inactive: 0.012 |
| CYCS (UniProt P99999) | inactive: -0.022 | inactive: -0.121 | inactive: -0.019 | inactive: -0.006 | inactive: 0.003 | inactive: 0.008 | inactive: 0.02 | inactive: 0.011 | inactive: 0.002 | inactive: -0.005 | inactive: 0.027 | inactive: 0.024 | inactive: 0 | inactive: 0.004 | inactive: -0.016 | inactive: -0.05 | inactive: -0.005 | inactive: 0.012 | inactive: -0.015 | inactive: 0.031 |
| CSTF3 (UniProt Q12996) | inactive: -0.005 | inactive: 0.019 | inactive: 0.01 | inactive: -0.001 | inactive: -0.028 | inactive: -0.027 | inactive: 0.005 | inactive: -0.018 | inactive: 0.012 | inactive: -0.023 | inactive: -0.017 | inactive: 0.011 | inactive: -0.006 | inactive: 0.011 | inactive: 0.001 | inactive: -0.006 | inactive: 0.048 | inactive: 0 | inactive: -0.003 | inactive: 0.019 |
| CTTN (UniProt Q14247) | inactive: -0.042 | inactive: -0.006 | inactive: -0.04 | inactive: -0.017 | inactive: -0.026 | inactive: -0.009 | inactive: -0.018 | inactive: 0.028 | inactive: -0.023 | inactive: -0.028 | inactive: 0.007 | inactive: 0.014 | inactive: 0.026 | inactive: 0.075 | inactive: -0.062 | inactive: 0.007 | inactive: -0.021 | inactive: -0.132 | inactive: -0.075 | inactive: -0.001 |
| CTBP2 isoform 2 (UniProt P56545) | inactive: 0.094 | inactive: -0.013 | inactive: 0.042 | inactive: 0.006 | inactive: 0.01 | inactive: -0.007 | inactive: -0.025 | inactive: -0.001 | inactive: -0.01 | inactive: -0.008 | inactive: 0.056 | inactive: -0.016 | inactive: 0.003 | inactive: 0.015 | inactive: -0.005 | inactive: -0.023 | inactive: 0.011 | inactive: 0.044 | inactive: 0.026 | inactive: -0.034 |
| CSPP1 (UniProt Q1MSJ5) | inactive: -0.028 | inactive: -0.094 | inactive: 0.079 | inactive: 0.017 | inactive: -0.088 | inactive: 0.021 | inactive: -0.137 | inactive: -0.02 | inactive: 0.007 | inactive: -0.026 | inactive: 0.052 | inactive: 0 | inactive: 0 | inactive: 0.026 | inactive: -0.023 | inactive: 0 | inactive: -0.015 | inactive: -0.074 | inactive: -0.006 | inactive: 0.084 |
| CXXC1 isoform 2 (UniProt Q9P0U4) | inactive: 0.02 | inactive: -0.031 | inactive: -0.051 | inactive: 0.029 | inactive: -0.085 | inactive: -0.036 | inactive: -0.088 | inactive: 0.082 | inactive: 0.04 | inactive: 0.059 | inactive: -0.034 | inactive: -0.078 | inactive: 0.013 | inactive: -0.089 | inactive: -0.005 | inactive: -0.01 | inactive: 0.082 | inactive: 0.004 | inactive: 0.061 | inactive: -0.155 |
| CRTC2 (UniProt Q53ET0) | inactive: -0.009 | inactive: -0.155 | inactive: 0.071 | inactive: 0.011 | inactive: 0.021 | inactive: 0.007 | inactive: -0.09 | inactive: -0.085 | inactive: -0.06 | inactive: 0.054 | inactive: -0.069 | inactive: -0.108 | inactive: 0.01 | inactive: -0.026 | inactive: 0.018 | inactive: 0 | inactive: -0.016 | inactive: 0.007 | inactive: 0.032 | inactive: -0.136 |
| CSTF2 (UniProt P33240) | inactive: -0.036 | inactive: -0.002 | inactive: 0.048 | inactive: -0.048 | inactive: 0.044 | inactive: 0.011 | inactive: -0.04 | inactive: 0.002 | inactive: 0 | inactive: 0.053 | active: 0.244 | inactive: -0.001 | inactive: 0.025 | inactive: -0.033 | inactive: -0.022 | inactive: -0.033 | inactive: -0.02 | inactive: -0.011 | inactive: 0.052 | inactive: 0.011 |
